The other results are listed elsewhere or left out.
Molecular target: T1, OsSMF1 (Oryza sativa, UniProt Q6ZLB0 1-436)
T1 sequence: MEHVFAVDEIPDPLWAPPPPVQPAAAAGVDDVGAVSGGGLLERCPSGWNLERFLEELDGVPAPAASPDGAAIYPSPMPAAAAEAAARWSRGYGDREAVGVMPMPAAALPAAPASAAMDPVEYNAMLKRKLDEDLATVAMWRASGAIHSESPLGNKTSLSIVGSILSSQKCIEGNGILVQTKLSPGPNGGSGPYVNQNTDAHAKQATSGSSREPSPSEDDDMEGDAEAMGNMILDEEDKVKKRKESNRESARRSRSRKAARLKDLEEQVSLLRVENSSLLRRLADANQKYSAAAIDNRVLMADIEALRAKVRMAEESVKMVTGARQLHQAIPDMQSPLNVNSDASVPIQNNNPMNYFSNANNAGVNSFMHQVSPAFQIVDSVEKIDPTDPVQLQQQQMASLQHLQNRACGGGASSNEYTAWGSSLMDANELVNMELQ
Test: protein-binding microarray (RPBM); PBS, 2% BSA, 51.3 ng/ul salmon testes DNA, 50 uM zinc acetate, 200 nM TF, 25 C, 1 h; high values mean tight binding
Settings: protein: recombinant; tags: N-terminal polyhistidine and DsRed monomer fusion (pET32a); chain copies: 2; label: CyDye5-dUTP incorporated in the synthesized complementary strand; 3' TTTTT single-stranded linker to array surface; dsDNA, one strand shown
In short: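 Binding signal is reported as fluorescence intensity per feature (arbitrary units) from an Axon 4000B scanner. Incubation used 200 nM of each Ni–NTA-purified, N-terminally polyhistidine- and DsRed-fused transcription factor from E. coli BL21-CodonPlus on a double-stranded custom Agilent array for 1 h at 25 °C, with 50 µM zinc acetate in the buffer, followed by washing.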

Point of comparison: “GTACGACCAATTTCCGTTTCATCATCATGTCGGGCAGTAACGGAGTCACCTAGTGCAG”, binding signal 23800 fluorescence intensity (a.u.). Against it:
- ATCCAAATTGGCTGTCGGGGCCAGATCACGCTGTGCGCTGCGGAGTCACCTAGTGCAG — lower, 3230 fluorescence intensity (a.u.)
- TTGGTTAGCTTAGCTGGACCTGTTATCTGTCTGGGAAAGGCGGAGTCACCTAGTGCAG — lower, 3820 fluorescence intensity (a.u.)
- AAGGTCACTCGCACACATCCAGCCCCAGCCAATAGGTTCCCGGAGTCACCTAGTGCAG — lower, 23400 fluorescence intensity (a.u.)
- TAAAGCTCAACACACAACCATGTTACATCATCACCCACTACGGAGTCACCTAGTGCAG — lower, 6700 fluorescence intensity (a.u.)
- CAAGTCCATGTCATCCTCGTTCCTGTGGTGCCCCATGTCGCGGAGTCACCTAGTGCAG — lower, 8040 fluorescence intensity (a.u.)
- GCGCACACGCCCACGCGCTCCCCTCGCACGCCACCGGACGCGGAGTCACCTAGTGCAG — lower, 3250 fluorescence intensity (a.u.)
- GCCTTCCAAGTCACCACCAACCCCTCTTTCTTTGATCACCCGGAGTCACCTAGTGCAG — lower, 6820 fluorescence intensity (a.u.)
- ATCCGCACCGGATCTCGCCGGAGGAGTCAGCCGGCCGCACCGGAGTCACCTAGTGCAG — lower, 3880 fluorescence intensity (a.u.)
- GGATGGCCCTCTCACGTTCACGTACGCAACGCCGATTCGACGGAGTCACCTAGTGCAG — lower, 3660 fluorescence intensity (a.u.)
- CACGGGACGCCGCGCGCTCTGCCGCGTCGTCGTCCCCTCTCGGAGTCACCTAGTGCAG — lower, 3660 fluorescence intensity (a.u.)
- AAGGGTCAGGACTGCTCGTTAACACGTGGATCCTCAGTTCCGGAGTCACCTAGTGCAG — lower, 8690 fluorescence intensity (a.u.)
- CCGCCGATCCATCGCCGCCGCTGCCGCCGTTTTCTATTGTCGGAGTCACCTAGTGCAG — lower, 3270 fluorescence intensity (a.u.)
- GCGAGCAGTCGATGTCCTCGATGACGATGATGGACTTGCTCGGAGTCACCTAGTGCAG — lower, 4140 fluorescence intensity (a.u.)
- CCACCGTCCGATTACGACACGTGGCGCGATCCCAGCGGCCCGGAGTCACCTAGTGCAG — lower, 16900 fluorescence intensity (a.u.)
- GATTAGATTCGGGTCACTTTTAATGAAGTCAAAGTGGACTCGGAGTCACCTAGTGCAG — lower, 13500 fluorescence intensity (a.u.)
- ACTGTTATGGAGCTGGGTATTACCCCAATTGTGACATCTGCGGAGTCACCTAGTGCAG — lower, 23100 fluorescence intensity (a.u.)
- GGTACACTAAAATTTCAGATATAGCTACCAAATTTCCTGTCGGAGTCACCTAGTGCAG — higher, 24200 fluorescence intensity (a.u.)
- AACTTGTTCCAGCTGCAGCTTTTCCTAAAAGCTGCTTCTGCGGAGTCACCTAGTGCAG — lower, 3170 fluorescence intensity (a.u.)
- GAGCGGACGGTGCAGGACGCGCTGGACCGGGCGTCCGTGGCGGAGTCACCTAGTGCAG — lower, 3850 fluorescence intensity (a.u.)
- GCGTAGTATTTGTCGTAACCAGGAGCATCCGAGTCATTAACGGAGTCACCTAGTGCAG — lower, 4680 fluorescence intensity (a.u.)
- CAAGACGTTGGAAACCCAGTCACCCACGGCCACAGCCCAACGGAGTCACCTAGTGCAG — lower, 3350 fluorescence intensity (a.u.)
- AATTAATCATTACTAACTTGTTTCATTTTACGTGGACTAACGGAGTCACCTAGTGCAG — lower, 3420 fluorescence intensity (a.u.)
- TGAAGGTGCTGTGTTTTGAGTGCTTGGGATGAGCTGCGTGCGGAGTCACCTAGTGCAG — lower, 3630 fluorescence intensity (a.u.)
- GGATGCGACCGTCATCACCGTTTGCCGTGTAGCGGATGCCCGGAGTCACCTAGTGCAG — lower, 4740 fluorescence intensity (a.u.)
- AGAGAAAGGAAGGGAAGAGAGAGGGTGATGACGTGGCGACCGGAGTCACCTAGTGCAG — higher, 35600 fluorescence intensity (a.u.)
- GCGTAATAAGCCGATGCGCGTCATCGGGCCGAGCCTGACGCGGAGTCACCTAGTGCAG — lower, 4490 fluorescence intensity (a.u.)
- AGCTGGTGTTGGTGGTGTTGGTGGTGGTAGGCGGCGGCGTCGGAGTCACCTAGTGCAG — lower, 3680 fluorescence intensity (a.u.)
- AAGGATGGAGGTAGCTAAGCCAACTCGATCAGGGTTGTCACGGAGTCACCTAGTGCAG — lower, 3210 fluorescence intensity (a.u.)
- ACAGAGAAACACGCTGGCACTCTTGAGATGATTAGATCTGCGGAGTCACCTAGTGCAG — lower, 4260 fluorescence intensity (a.u.)
- TCTGGCACGCTGAAATTGCTGCCGCAAGTACAACAAGAGCCGGAGTCACCTAGTGCAG — lower, 3320 fluorescence intensity (a.u.)
- AAATGGATGATGTAATCTTATCTTCTTCATGTAGCTGGTGCGGAGTCACCTAGTGCAG — lower, 3760 fluorescence intensity (a.u.)
- ATTTTATTGGGATCAAATTACCACGTAGGCGCCACGTCAACGGAGTCACCTAGTGCAG — lower, 20900 fluorescence intensity (a.u.)
- TTGTGGGTGTCTGCGTTGGCCTCTTATATGGCAGGTTTGACGGAGTCACCTAGTGCAG — lower, 3250 fluorescence intensity (a.u.)
- CGAGGAGAGGGAGAGGGGCTTCATCTGCTGCTGCTTCGGCCGGAGTCACCTAGTGCAG — lower, 3900 fluorescence intensity (a.u.)
- CCTCCCCTACGCGTCCCACGTCCGCAAGACGGCCGGCTACCGGAGTCACCTAGTGCAG — lower, 6470 fluorescence intensity (a.u.)
- GAGAGAGCATATGGTGGTAAAAGGACAGTGACGCGACAGCCGGAGTCACCTAGTGCAG — lower, 6670 fluorescence intensity (a.u.)
- CCGTGGCGCGGAGCGAGGCGGCGCAGATGGGGTACTACGCCGGAGTCACCTAGTGCAG — lower, 3400 fluorescence intensity (a.u.)
- ATTTAATGTCCTAAGTTTAGTATTGGAGTCATACATCTATCGGAGTCACCTAGTGCAG — lower, 3320 fluorescence intensity (a.u.)
- TGAGTCAGAGAAGTACAGGTGGATGGGCAGTGCTCGTCTTCGGAGTCACCTAGTGCAG — higher, 31600 fluorescence intensity (a.u.)
- AAACCGTACATATTAAAATAGACTACCGATATTTTCCTTTCGGAGTCACCTAGTGCAG — higher, 31300 fluorescence intensity (a.u.)
- CCTTGTGTGTGTCAGATCGCTGCCAGCCAATTGTCAAGTGCGGAGTCACCTAGTGCAG — lower, 3910 fluorescence intensity (a.u.)

Source: publication PMC7819943, “Rice protein-binding microarrays: a tool to detect cis-acting elements near promoter regions in rice”
